These are yes or no findings as the source states them, for the method shown. In cells and extracts the contact can be indirect. Some entries that bind do so weakly or less than the wild type.
Target: inosine monophosphate dehydrogenase 2 (IMPDH2) (human (endogenous in PDX GBM cells and breast cancer cells)) (UniProt P12268)
Assay: co-IP

Protein sequences, listed by entry. Tags and fused reporters are not part of them.
UniProt Q3SXY8: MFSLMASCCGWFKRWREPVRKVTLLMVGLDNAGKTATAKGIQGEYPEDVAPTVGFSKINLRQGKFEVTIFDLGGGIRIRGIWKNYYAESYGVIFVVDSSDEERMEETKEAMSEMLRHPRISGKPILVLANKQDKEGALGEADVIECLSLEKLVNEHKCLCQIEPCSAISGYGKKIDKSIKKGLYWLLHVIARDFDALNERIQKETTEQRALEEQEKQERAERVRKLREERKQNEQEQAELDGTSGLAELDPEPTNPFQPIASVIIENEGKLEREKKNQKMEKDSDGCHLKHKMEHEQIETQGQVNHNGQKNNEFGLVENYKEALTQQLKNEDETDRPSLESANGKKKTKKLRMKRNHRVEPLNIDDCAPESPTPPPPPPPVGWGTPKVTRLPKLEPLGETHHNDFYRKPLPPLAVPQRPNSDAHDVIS

ADP-ribosylation factor family small GTPase ARL13B (from UniProt Q3SXY8 1-428)
binding: binds
